From PubChem BioAssay AID504327 (National Center for Advancing Translational Sciences (NCATS), 2011)
Screen size: about 390,000 compounds; about 820 (0.21%) were called active. The shares of active, inactive and inconclusive entries below differ from those in the screen. The call rests on the fitted dose curve; in most records, active means well fitted inhibition curve with a large enough effect; inconclusive means small, poorly fitted or top-dose-only effect, or another doubt; inactive means no such curve, though single readings can be large or run the other way. A potency beside an inconclusive call is a rough fit, not a confirmed value. Some structures have more than one record in an assay (separate samples or runs), and their calls can disagree.
On the % scale 0 is the no-effect control and ±100 the full control effect; potency means the concentration at half of the fitted maximal effect.

The chains behind the UniProt entries cited, without tags or fusion partners.
UniProt Q92830, whole entry, looked up: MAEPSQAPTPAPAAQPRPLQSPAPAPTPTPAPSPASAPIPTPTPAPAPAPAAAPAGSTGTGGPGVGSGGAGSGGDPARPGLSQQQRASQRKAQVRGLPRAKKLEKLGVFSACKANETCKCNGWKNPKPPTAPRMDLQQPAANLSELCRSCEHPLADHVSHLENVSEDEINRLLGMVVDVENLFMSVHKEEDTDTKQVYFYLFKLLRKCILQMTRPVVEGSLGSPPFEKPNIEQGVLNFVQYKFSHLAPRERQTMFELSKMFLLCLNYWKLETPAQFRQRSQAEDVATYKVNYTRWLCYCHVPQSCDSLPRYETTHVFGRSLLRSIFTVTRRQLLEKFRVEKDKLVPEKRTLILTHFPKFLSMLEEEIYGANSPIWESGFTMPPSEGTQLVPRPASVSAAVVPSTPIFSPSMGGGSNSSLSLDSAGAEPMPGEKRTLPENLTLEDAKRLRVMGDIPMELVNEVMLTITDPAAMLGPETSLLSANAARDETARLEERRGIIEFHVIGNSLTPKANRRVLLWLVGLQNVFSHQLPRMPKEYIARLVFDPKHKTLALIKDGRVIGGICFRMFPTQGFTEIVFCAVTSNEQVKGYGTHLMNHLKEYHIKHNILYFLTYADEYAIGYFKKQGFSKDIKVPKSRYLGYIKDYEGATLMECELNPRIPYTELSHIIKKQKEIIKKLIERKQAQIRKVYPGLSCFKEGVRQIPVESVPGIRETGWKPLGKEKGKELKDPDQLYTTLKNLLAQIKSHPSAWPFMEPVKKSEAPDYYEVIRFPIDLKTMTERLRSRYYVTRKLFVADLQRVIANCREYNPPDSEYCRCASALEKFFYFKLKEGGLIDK

The compounds below were run against Histone acetyltransferase KAT2A (Homo sapiens) (UniProt Q92830) (assay: qHTS Assay for Inhibitors of GCN5L2). Conditions: GCN5L2 HAT assay, ThioGlo1 CoA-SH fluorescence; activity change, negative = inhibition: at 58.9 µM (top of the series) unless noted.
Method in brief: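 GCN5L2 (20nM final) in 50mM HEPES, 0.1mM EDTA pH 7.5, 0.01% Tween-20 was preincubated 15 min at room temperature with compound, then given ThioGlo1 (50uM), H3(1-25) peptide (75uM) and acetyl-CoA (70uM); CoA-thiol fluorescence (Ex340/Em540) was read at 0 and 20 min.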
In the case of `COc1ccc(CCNC(=O)c2c[nH]n3c(=O)c(Cc4ccccc4Cl)c(C)nc23)cc1OC`, the Potency is reported as active: 28.2 µM.
In the case of `O=c1c(Sc2ccccc2)c(C(F)(F)F)[nH]n1-c1ccccc1`, the Potency is reported as inconclusive: 39.8 µM [inhibitor, single point].
For `CC(=O)c1cccc(NC(=O)Cn2c(=O)oc3cc(S(=O)(=O)NCc4ccccc4)ccc32)c1`, the “activity change, negative = inhibition” value was inactive: 0.646%.
With `CCCCCCCC/C=C\CCCCCCCC(=O)O` the Potency was active: 31.6 µM.
With `Cc1ccc(NS(=O)(=O)c2ccc(NC(=O)C3CC3)cc2)cc1C` the Potency was inconclusive: 3.16 µM [inhibitor, full curve, poor fit].
With `CCn1c(=O)n(C2=C(CO)CN(CC3CCCCCCC3)CC2)c2ccccc21` the “activity change, negative = inhibition” value was inactive: 1.3%.
With `CC(=O)Nc1ccc(SC[C@H](CC(C)C)N2CCN(CCc3ccccc3)CCC2=O)cc1` the “activity change, negative = inhibition” value was inactive: 0.564%.
For `O=C(N/N=C/c1ccc(OCc2ccccc2)cc1)c1cccs1`, the Potency was inconclusive: 3.55 µM [inhibitor, single point].
With `CC(C)(C)C1CCc2c(sc(NC(=O)CSc3ncn[nH]3)c2C#N)C1` (stereo not drawn) the Potency was inconclusive: 28.2 µM [inhibitor, single point].
With `O=C(CSc1nnnn1-c1ccccc1)CSc1nnnn1-c1ccccc1` the Potency was inconclusive: 20 µM [inhibitor, partial curve].
For `CCOC(=O)c1ccc(NC(=S)N2CCSC2c2ccc(OC)cc2)cc1` (stereo not drawn), the “activity change, negative = inhibition” value was inactive: -0.0246%.
With `CCOC(=O)c1cnc(/N=C/N(C)C)s1` the Potency was inconclusive: 0.631 µM [inhibitor, single point].
In the case of `Cc1cc(Br)ccc1NC(=O)CN(C)C(=O)CNC(=O)Cc1ccccc1`, the “activity change, negative = inhibition” value is reported as inactive: -3.97%.
In the case of `O=C1C(Cc2ccccc2)Nc2ncnc(N3CCN(c4ccccc4)CC3)c2N1Cc1ccccc1` (stereo not drawn), the Potency is reported as inconclusive: 39.8 µM [inhibitor, single point].
With `COc1ccc(S(=O)(=O)Nc2cc3c(C(C)=O)c(C)oc3c3ccccc23)cc1` the “activity change, negative = inhibition” value was inactive: -0.623%.
`COc1ccc(-c2cc(-c3c(O)c(OC)c4occc4c3OC)[nH]n2)cc1OC` was tested, and the Potency was inconclusive: 39.8 µM [inhibitor, single point].
In the case of `Cc1nn(C)c(C)c1CCNC(=O)Nc1cccc(Cl)c1C`, the “activity change, negative = inhibition” value is reported as inactive: 23.1%.
In the case of `COC(=O)C(CCCCNC(=O)c1ccc([N+](=O)[O-])cc1)NC(=O)c1ccc([N+](=O)[O-])cc1` (stereo not drawn), the “activity change, negative = inhibition” value is reported as inactive: -2.4%.
In the case of `Cn1nccc1C(=O)Nc1ccn(C23CC4CC(CC(C4)C2)C3)n1`, the “activity change, negative = inhibition” value is reported as inactive: -6%.
For `COc1ccc(CNC(=O)C23CC4CC(CC(Br)(C4)C2)C3)cc1`, the “activity change, negative = inhibition” value was inactive: -5.39%.
`COc1cccc(CNC(=O)c2cccc(S(=O)(=O)N3CCN(c4ccc(F)cc4)CC3)c2)c1` was tested, and the “activity change, negative = inhibition” value was inactive: -5.38%.
`NS(=O)(=O)c1ccc(NC(=O)CSc2nc3ccccc3nc2N2CCOCC2)cc1` was tested, and the Potency was inconclusive: 0.708 µM [inhibitor, single point].
For `CCOC(=O)c1ccc(S(=O)(=O)N2CCN(C(=O)C3CSC4(C)CCC(=O)N34)CC2)cc1` (stereo not drawn), the “activity change, negative = inhibition” value was inactive: 4.03%.
For `CCNc1ncc2nc(CCc3ccccc3)c(=O)n(CCOC)c2n1`, the Potency was inconclusive: 25.1 µM [inhibitor, single point].
`Cc1cc(=O)n2[nH]c(=O)c(N=Nc3ccccc3)c2[nH]1` was tested, and the Potency was inconclusive: 39.8 µM [inhibitor, partial curve].
For `COc1cc(/C=N/Nc2nc(C)cc(C)n2)cc(OC)c1OC`, the Potency was inconclusive: 7.08 µM [inhibitor, single point].
`Cc1ccc(-c2ccnc3c(Cl)c(C)nn23)cc1` was tested, and the Potency was inconclusive: 39.8 µM [inhibitor, single point].
`Cc1ccc(C)c(Nc2nc3c(S(=O)(=O)c4ccc(Br)cc4)nnn3c3ccsc23)c1` was tested, and the Potency was inconclusive: 22.4 µM [inhibitor, partial curve].
In the case of `O=C(CCN1C(=O)/C(=C\C=C\c2ccccc2)SC1=S)Nc1ccc(C(=O)O)cc1`, the Potency is reported as inconclusive: 39.8 µM [inhibitor, single point].
With `[N-]=[N+]=Nc1ccc(C(=O)CSC[C@H](NC(=O)CC[C@H](N)C(=O)O)C(=O)NCC(=O)O)cc1` the Potency was active: 7.94 µM.
With `O=CN/N=C/c1c(O)ccc2ccccc12` the “activity change, negative = inhibition” value was inactive: -23.8%.
In the case of `O=C(O)c1ccccc1NS(=O)(=O)c1cccc(-n2sc3ccccc3c2=O)c1`, the Potency is reported as active: 0.447 µM.
With `Cc1ccc(C2=NS(=O)(=O)N(C)C(C(=O)N3CCOCC3)=C2)cc1` the Potency was active: 10 µM.
`CC#CCCC(=O)N1C=Cc2ccccc2C1C#N` (stereo not drawn) was tested, and the “activity change, negative = inhibition” value was inactive: -1.08%.
With `COc1cc(N(C)C)cc(CN(C)CCc2ccc([N+](=O)[O-])cc2)c1O` the Potency was inconclusive: 39.8 µM [inhibitor, single point].
In the case of `CCCCCCSc1cc(-c2nc3cnccn3c2NCCCC)ccc1OC`, the Potency is reported as inconclusive: 22.4 µM [inhibitor, partial curve].
In the case of `Cc1cc(SCc2ccccc2Cl)nc(=O)[nH]1`, the Potency is reported as inconclusive: 39.8 µM [inhibitor, partial curve, poor fit].
With `Cc1ccc(S(=O)(=O)N2CCN(C(=O)C3CCN(C(=O)c4ccc(F)cc4)CC3)CC2)c(C)c1` the Potency was inconclusive: 39.8 µM [inhibitor, single point].
For `COc1cccc(NC(=O)c2sc3nc(C)c(C(=O)Nc4ccc(C)cc4C)c(-c4cccs4)c3c2N)c1`, the Potency was active: 17.8 µM.
`Fc1cccc(Cl)c1C1Nc2cccc3cccc(c23)N1` was tested, and the “activity change, negative = inhibition” value was inactive: -15%.
With `CCCCOc1ccc(-c2n[nH]c(=S)n2Cc2ccccc2)cc1` the “activity change, negative = inhibition” value was inactive: -0.743%.
For `O=C(NCCc1c[nH]c2ccccc12)C(F)(F)C(F)F`, the Potency was inconclusive: 1.12 µM [inhibitor, full curve].
In the case of `O=C(NCC1CCN(Cc2ccccc2Cl)CC1)c1cc2ccc3cccnc3c2[nH]1`, the “activity change, negative = inhibition” value is reported as inactive: 0.937%.
For `Cc1ccc(C)n1-c1ccc(C(=O)NCc2ccncc2)cc1`, the “activity change, negative = inhibition” value was inactive: -2.58%.
For `Cc1c(Cl)cnc(NC(=O)COC(=O)/C=C/c2ccco2)c1Cl`, the Potency was inconclusive: 28.2 µM [inhibitor, single point].
In the case of `CC(C)c1ccc2occ(CC(=O)Nc3cccc(C(F)(F)F)c3)c2c1`, the “activity change, negative = inhibition” value is reported as inactive: -13.6%.
`COc1ccc(C(=O)NC2CCN(C(=S)Nc3cccc(C)c3)CC2)cc1` was tested, and the Potency was inconclusive: 39.8 µM [inhibitor, single point].
In the case of `Cc1ccc(CSCCNS(=O)(=O)c2ccccc2)cc1`, the “activity change, negative = inhibition” value is reported as inactive: -0.925%.
